Experimental data: the supplement of paper PMC12024529
Where a name gives a salt, the structure may show the parent alone. This is one part of the list. Part of the spread comes from offsets between plates or batches.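 HEK293 lines stably express B-domain-deleted factor VIII fused to Gaussia luciferase, wild type or a misfolding-prone missense mutant. Scores equal triplicate-well mean luminescence minus DMSO mean, divided by DMSO standard deviation; scores of 2 or higher are hits. Low scores may indicate reduced secretion or worse cell viability.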

Legend:
HEK293 WT BDD-FVIII-Gluc = assay: secreted FVIII-Gluc luciferase Z-score vs DMSO control; higher = more FVIII-Gluc secretion; details: 5 µM; 24 h
[1] = test system: HEK293 p.N1941S BDD-FVIII-Gluc; assay: as above; details: 5 µM; 24 h

SMILES	secreted FVIII-Gluc luciferase Z-score (HEK293 WT BDD-FVIII-Gluc)	secreted FVIII-Gluc luciferase Z-score [1]
O=C1O[C@H]([C@@H](O)CO)C(O)=C1O [Vitamin C (Ascorbic acid)]	inactive: -1.56	inactive: -0.234
CC(=O)[C@H]1CC[C@H]2[C@@H]3CC=C4C[C@@H](O)CC[C@]4(C)[C@H]3CC[C@]12C [Pregnenolone]	inactive: -2.02	inactive: -3.49
CC[C@H](C)C(=O)O[C@H]1CCC=C2C=C[C@H](C)[C@H](CC[C@@H]3C[C@@H](O)CC(=O)O3)[C@H]21 [Mevastatin]	inactive: -1.46	inactive: -0.018
CCc1cc2c(cc1CC)CC(NC[C@H](O)c1ccc(O)c3[nH]c(=O)ccc13)C2 [Indacaterol Maleate]	active: 2.06	inactive: -0.561
CC(C)c1c(C(=O)Nc2ccccc2)c(-c2ccccc2)c(-c2ccc(F)cc2)n1CC[C@@H](O)C[C@@H](O)CC(=O)O [Atorvastatin calcium (Lipitor)]	inactive: -0.633	inactive: -2.12
Cc1onc(-c2ccccc2Cl)c1C(=O)N[C@@H]1C(=O)N2[C@@H]1SC(C)(C)[C@@H]2C(=O)O [Cloxacillin sodium (Cloxacap)]	inactive: 1.43	inactive: -0.818
C=CCc1cc(OC)c(O)c(C(=O)NCCO)c1 [Alibendol]	inactive: -2.42	inactive: 0.17
CC1(C)S[C@@H]2[C@H](NC(=O)[C@H](N)c3ccc(O)cc3)C(=O)N2[C@H]1C(=O)O [Amoxicillin (Amoxycillin)]	active: 2.24	inactive: -0.246
Cn1ccnc1S [Methimazole (Tapazole, Northyx)]	inactive: -3.41	inactive: 0.988
O=C(O)CCc1nc(-c2ccccc2)c(-c2ccccc2)o1 [Oxaprozin]	inactive: -1.08	inactive: -0.103
C[C@@H]1C[C@H]2[C@@H]3CCC4=CC(=O)C=C[C@]4(C)[C@@]3(F)[C@@H](O)C[C@]2(C)[C@@]1(O)C(=O)CO [Dexamethasone]	inactive: 1.46	active: 4.29
CNS(=O)(=O)CCc1ccc2[nH]cc(C3CCN(C)CC3)c2c1 [Naratriptan HCl]	inactive: -4.47	inactive: -0.939
CC[C@@H]1C(=O)OC[C@@H]1Cc1cncn1C [Pilocarpine HCl]	inactive: -0.4	inactive: -0.609
Cc1cc2c(cc1S(N)(=O)=O)S(=O)(=O)CCC2 [Meticrane]	inactive: 0.6	inactive: 0.97
CCCN(CCc1cccs1)[C@H]1CCc2c(O)cccc2C1 [Rotigotine]	inactive: -0.754	inactive: 0.471
CN(C)c1nc(N(C)C)nc(N(C)C)n1 [Altretamine (Hexalen)]	active: 4.9	inactive: -2.19
CC(=O)O[C@H]1C[C@@H]2CC[C@@H]3[C@H](CC[C@@]4(C)[C@H]3C[C@H]([N+]3(C)CCCCC3)[C@@H]4OC(C)=O)[C@@]2(C)C[C@@H]1N1CCCCC1 [Vecuronium Bromide]	inactive: -3.63	inactive: 0.0957

An excerpt of these results, in markdown.

| SMILES | secreted FVIII-Gluc luciferase Z-score (HEK293 WT BDD-FVIII-Gluc) | secreted FVIII-Gluc luciferase Z-score [1] |
| --- | --- | --- |
| C[C@@H]1C[C@H]2[C@@H]3CCC4=CC(=O)C=C[C@]4(C)[C@@]3(F)[C@@H](O)C[C@]2(C)[C@@]1(O)C(=O)CO [Dexamethasone] | inactive: 1.46 | active: 4.29 |
| CNS(=O)(=O)CCc1ccc2[nH]cc(C3CCN(C)CC3)c2c1 [Naratriptan HCl] | inactive: -4.47 | inactive: -0.939 |
